PMC11617674, “The activity of the ribonucleotide monophosphatase UmpH is controlled by interaction with the GlnK signaling protein in Escherichia coli” (The Journal of Biological Chemistry, 2024)
These are yes or no findings as the source states them, for the method shown. Some results given as binding are weak or reduced against the parent protein; the word gives no strength. Sequences can lack the tags named with a protein.

Amino acid sequences for entries named in this document (tags omitted).
UniProt P0A9Z1: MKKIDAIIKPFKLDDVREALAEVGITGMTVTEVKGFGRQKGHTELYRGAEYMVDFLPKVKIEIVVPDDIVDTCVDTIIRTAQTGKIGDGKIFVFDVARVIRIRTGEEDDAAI

What was measured:
[1] = target: T1, His-GlnZΔloop (A. brasilense GlnZ with a deletion of the T-loop, GlnZΔ42–54) (Azospirillum brasilense) (UniProt P70731); experiment: pull-down; as a2 but with 1 mM ATP and 1 mM 2-OG combined (5 mM MgCl2); both purified
T1 sequence: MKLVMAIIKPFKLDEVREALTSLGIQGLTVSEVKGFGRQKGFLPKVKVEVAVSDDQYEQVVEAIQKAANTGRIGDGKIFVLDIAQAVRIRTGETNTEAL

[2] = target: His-GlnB (E. coli PII signaling protein GlnB, N-terminal His tag) (E. coli) (UniProt P0A9Z1); experiment: pull-down; His-PII on Ni2+ magnetic beads, untagged UmpH; 50 mM Tris-HCl pH 8.0, 0.1 M NaCl, 5 mM MgCl2, 10% glycerol, 20 mM imidazole; room temperature; without nucleotides or with ATP or ADP (effectors as indicated); SDS-PAGE, Coomassie; both purified
[3] = target: T1, His-GlnZΔloop (A. brasilense GlnZ with a deletion of the T-loop, GlnZΔ42–54) (Azospirillum brasilense); experiment: as above
[4] = target: His-GlnZ from Azospirillum brasilense (Azospirillum brasilense) (UniProt P70731); experiment: as above

binding [1]: binds
binding [2]: no binding
binding [3]: binds
binding [4]: binds
B1: UmpH (ribonucleotide monophosphatase), untagged recombinant (enzyme, UniProt P0AF24 1-250)
chain: MTIKNVICDIDGVLMHDNVAVPGAAEFLHGIMDKGLPLVLLTNYPSQTGQDLANRFATAGVDVPDSVFYTSAMATADFLRRQEGKKAYVVGEGALIHELYKAGFTITDVNPDFVIVGETRSYNWDMMHKAAYFVANGARFIATNPDTHGRGFYPACGALCAGIEKISGRKPFYVGKPSPWIIRAALNKMQAHSEETVIVGDNLRTDILAGFQAGLETILVLSGVSSLDDIDSMPFRPSWIYPSVAEIDVI
